Data as given in the supplement of paper PMC10849652.
The list shows a part of the results.

Amino acid sequences for entries named in this document (tags omitted). A change or cut given only in a name is not applied to a line headed by its entry.
UniProt Q96G01: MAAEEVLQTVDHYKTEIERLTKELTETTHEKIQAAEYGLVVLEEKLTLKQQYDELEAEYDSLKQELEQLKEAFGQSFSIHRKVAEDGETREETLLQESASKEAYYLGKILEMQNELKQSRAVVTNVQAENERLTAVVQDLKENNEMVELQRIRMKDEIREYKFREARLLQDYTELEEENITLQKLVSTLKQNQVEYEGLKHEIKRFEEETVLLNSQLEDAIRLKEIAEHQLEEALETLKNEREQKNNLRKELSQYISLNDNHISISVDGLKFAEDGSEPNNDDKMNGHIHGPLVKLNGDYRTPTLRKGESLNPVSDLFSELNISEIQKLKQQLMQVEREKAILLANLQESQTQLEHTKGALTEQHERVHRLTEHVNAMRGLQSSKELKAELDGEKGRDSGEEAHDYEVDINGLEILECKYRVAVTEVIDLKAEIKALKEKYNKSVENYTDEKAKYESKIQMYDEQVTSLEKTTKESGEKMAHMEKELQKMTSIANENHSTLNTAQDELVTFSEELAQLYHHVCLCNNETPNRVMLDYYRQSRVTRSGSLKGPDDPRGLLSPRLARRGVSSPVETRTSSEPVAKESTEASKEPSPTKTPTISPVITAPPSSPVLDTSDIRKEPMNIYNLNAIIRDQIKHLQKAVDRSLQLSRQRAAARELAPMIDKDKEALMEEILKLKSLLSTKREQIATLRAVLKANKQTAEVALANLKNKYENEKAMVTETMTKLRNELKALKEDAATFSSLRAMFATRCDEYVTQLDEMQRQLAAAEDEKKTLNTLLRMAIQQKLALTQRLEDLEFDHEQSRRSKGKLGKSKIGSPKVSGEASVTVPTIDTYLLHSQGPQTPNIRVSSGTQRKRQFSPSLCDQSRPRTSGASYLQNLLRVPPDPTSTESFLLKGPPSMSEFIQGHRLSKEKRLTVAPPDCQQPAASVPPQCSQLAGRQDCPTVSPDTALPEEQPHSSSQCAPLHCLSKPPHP
UniProt O15382: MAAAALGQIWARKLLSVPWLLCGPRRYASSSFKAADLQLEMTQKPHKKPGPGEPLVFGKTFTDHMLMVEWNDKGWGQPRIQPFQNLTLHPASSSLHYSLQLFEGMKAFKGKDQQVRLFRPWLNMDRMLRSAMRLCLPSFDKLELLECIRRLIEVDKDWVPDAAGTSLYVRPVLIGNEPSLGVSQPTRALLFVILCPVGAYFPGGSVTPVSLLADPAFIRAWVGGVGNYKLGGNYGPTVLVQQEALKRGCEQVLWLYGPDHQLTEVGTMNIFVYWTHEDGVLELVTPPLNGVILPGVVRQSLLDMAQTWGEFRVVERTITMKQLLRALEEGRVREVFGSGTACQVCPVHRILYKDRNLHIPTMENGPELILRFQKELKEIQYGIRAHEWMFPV
UniProt O75934: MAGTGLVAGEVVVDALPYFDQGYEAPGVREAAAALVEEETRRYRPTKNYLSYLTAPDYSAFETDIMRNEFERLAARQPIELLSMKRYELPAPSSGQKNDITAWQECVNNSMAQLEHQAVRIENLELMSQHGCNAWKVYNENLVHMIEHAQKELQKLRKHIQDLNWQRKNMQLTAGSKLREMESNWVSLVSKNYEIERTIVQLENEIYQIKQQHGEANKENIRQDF
UniProt Q9Y276: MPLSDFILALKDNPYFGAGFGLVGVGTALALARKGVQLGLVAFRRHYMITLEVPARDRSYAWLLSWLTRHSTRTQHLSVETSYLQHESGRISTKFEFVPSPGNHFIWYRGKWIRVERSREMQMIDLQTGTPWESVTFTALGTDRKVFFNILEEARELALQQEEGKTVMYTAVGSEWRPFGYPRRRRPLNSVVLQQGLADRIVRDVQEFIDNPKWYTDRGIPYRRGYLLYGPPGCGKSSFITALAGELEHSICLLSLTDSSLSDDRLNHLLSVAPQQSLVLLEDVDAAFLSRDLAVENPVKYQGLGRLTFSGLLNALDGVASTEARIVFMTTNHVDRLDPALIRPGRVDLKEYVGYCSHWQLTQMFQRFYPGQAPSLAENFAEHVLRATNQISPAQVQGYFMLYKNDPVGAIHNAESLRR
UniProt Q53S33: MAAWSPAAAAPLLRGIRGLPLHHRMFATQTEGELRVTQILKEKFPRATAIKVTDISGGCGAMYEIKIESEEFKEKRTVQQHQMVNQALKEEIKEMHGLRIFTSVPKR
UniProt Q9UL45: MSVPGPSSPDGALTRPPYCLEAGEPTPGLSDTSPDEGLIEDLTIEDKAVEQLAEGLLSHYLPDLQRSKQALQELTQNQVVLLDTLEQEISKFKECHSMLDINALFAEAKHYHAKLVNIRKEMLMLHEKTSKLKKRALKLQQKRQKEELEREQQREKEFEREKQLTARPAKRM
UniProt O15392, whole entry, looked up: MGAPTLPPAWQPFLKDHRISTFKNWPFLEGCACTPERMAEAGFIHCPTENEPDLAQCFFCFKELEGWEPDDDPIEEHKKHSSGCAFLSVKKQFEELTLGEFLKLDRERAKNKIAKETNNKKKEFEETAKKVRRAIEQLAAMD
UniProt Q9H2G9: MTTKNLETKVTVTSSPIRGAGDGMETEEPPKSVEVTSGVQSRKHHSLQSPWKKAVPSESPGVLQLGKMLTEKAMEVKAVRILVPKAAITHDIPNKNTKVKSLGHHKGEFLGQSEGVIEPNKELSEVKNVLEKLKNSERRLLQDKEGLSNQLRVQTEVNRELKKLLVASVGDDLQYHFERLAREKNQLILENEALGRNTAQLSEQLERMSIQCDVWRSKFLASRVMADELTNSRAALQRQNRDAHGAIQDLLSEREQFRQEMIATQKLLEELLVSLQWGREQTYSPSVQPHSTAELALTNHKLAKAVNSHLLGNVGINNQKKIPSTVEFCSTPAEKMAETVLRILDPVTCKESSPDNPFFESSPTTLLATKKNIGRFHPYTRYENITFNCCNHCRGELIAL
UniProt Q7Z7M8: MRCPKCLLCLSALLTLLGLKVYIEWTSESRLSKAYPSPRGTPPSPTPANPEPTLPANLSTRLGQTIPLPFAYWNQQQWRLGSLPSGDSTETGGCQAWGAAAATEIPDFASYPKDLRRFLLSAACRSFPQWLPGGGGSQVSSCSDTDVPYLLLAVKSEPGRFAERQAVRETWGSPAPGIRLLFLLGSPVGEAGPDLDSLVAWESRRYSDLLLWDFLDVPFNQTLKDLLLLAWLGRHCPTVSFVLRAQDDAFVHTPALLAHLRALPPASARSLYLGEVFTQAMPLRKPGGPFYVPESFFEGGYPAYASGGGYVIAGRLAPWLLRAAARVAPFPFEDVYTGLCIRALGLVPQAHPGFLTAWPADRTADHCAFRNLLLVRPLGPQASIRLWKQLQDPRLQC
UniProt P56945: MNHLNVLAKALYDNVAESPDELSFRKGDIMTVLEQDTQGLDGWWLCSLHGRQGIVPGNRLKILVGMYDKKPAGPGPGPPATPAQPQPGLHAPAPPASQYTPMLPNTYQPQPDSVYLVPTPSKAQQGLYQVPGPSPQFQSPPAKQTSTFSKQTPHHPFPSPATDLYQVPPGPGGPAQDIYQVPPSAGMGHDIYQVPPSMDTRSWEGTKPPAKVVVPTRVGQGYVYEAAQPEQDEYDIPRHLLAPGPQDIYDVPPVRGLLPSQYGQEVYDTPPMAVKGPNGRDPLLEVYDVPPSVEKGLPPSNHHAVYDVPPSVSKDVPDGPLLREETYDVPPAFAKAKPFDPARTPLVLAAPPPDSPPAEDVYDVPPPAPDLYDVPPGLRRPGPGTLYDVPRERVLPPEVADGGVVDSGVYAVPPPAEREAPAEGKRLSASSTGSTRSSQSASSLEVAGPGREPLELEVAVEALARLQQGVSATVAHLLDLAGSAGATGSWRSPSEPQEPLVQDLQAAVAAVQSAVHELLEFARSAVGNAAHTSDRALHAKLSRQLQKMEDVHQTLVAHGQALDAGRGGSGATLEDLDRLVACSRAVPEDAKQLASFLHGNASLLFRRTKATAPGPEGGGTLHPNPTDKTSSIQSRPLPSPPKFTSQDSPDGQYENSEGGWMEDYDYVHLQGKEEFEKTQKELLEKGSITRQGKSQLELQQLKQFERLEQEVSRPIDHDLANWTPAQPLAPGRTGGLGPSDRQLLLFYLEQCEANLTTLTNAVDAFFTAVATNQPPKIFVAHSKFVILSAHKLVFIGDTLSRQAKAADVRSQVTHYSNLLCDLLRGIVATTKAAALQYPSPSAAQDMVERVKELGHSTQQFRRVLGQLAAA
UniProt Q4VC05, whole entry, looked up: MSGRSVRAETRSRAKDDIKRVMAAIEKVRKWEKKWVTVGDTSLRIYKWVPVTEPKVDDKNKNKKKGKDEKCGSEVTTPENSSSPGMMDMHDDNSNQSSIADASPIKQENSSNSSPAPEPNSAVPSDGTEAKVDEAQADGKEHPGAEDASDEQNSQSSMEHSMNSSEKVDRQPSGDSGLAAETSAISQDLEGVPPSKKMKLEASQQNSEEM
UniProt Q9BX63: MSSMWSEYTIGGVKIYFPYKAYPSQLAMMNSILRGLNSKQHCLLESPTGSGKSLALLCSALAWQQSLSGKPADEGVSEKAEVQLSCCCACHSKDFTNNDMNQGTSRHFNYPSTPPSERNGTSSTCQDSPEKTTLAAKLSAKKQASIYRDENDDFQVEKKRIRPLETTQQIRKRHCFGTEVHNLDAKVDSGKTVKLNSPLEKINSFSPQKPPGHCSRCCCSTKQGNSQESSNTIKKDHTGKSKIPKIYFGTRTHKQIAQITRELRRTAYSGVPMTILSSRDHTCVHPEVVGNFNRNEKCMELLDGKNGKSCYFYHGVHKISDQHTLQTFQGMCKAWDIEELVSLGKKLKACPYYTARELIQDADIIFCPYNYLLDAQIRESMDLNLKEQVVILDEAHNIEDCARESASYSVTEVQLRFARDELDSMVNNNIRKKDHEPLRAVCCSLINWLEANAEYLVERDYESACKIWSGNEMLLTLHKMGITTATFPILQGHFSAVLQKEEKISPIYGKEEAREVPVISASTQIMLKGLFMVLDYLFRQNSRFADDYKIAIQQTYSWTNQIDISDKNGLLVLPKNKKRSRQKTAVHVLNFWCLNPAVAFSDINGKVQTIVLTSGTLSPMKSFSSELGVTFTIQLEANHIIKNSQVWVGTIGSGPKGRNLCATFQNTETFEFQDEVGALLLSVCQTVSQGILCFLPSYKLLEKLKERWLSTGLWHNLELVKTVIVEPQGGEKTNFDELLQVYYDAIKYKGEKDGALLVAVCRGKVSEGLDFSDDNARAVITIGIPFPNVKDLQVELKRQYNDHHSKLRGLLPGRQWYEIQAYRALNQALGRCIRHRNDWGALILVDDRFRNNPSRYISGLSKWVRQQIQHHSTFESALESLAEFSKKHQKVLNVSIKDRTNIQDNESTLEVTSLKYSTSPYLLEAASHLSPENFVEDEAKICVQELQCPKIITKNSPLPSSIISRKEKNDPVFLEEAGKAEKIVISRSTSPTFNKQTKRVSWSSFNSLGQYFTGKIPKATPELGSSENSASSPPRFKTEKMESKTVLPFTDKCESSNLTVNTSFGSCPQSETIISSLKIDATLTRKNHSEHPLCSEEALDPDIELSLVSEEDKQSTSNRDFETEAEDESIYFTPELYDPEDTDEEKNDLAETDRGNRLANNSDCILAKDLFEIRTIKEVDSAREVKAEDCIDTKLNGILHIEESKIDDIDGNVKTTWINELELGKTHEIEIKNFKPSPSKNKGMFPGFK
UniProt Q8NCR0: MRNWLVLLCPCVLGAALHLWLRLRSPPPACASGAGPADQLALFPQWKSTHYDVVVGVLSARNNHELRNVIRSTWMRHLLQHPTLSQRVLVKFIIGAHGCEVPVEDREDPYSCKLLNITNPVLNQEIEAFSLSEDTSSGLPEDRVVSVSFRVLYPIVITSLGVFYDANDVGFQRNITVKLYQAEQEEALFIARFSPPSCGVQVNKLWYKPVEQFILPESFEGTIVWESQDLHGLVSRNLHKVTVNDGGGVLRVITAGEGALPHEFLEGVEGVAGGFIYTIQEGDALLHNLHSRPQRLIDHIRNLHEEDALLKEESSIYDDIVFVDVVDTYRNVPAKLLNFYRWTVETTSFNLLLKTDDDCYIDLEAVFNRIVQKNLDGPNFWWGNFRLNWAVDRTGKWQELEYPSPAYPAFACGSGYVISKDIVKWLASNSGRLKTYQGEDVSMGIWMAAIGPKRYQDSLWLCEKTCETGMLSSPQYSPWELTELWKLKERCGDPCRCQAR
UniProt Q8WY22: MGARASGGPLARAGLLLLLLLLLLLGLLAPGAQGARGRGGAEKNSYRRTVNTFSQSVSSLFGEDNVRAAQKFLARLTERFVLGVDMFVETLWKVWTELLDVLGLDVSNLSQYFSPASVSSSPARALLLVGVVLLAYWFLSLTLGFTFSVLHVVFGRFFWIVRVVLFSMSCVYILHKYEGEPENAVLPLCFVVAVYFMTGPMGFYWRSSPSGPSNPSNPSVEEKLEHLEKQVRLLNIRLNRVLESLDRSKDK

Tests used:
Test in all cases: log2 fold change, soluble protein after heating vs DMSO (PISA); higher = thermal stabilisation; K562 cells, 10 uM, 30 min; active = over 0.2 and 3.5 SD of the protein, either way, in both replicates (recomputed)
[1] = compound: NC(=O)Nc1cc(-c2cccc(F)c2)sc1C(=O)N[C@H]1CCCNC1
Procedure, shortened: (§1)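 K562 cells at 2×10^6 cells/mL were treated for 30 min with 10 μM compound, and aliquots were heated for 3 min over 48°C-58°C before pooling. Extraction used PBS with 0.5% NP-40 at 4°C, and soluble protein was the supernatant after 21,000xg for 90 min, measured by TMTpro 16plex LC-MS/MS with channel sums equalised. Thermal stability values, relative to control samples and from duplicates, are log2 fold changes.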

[2] = compound: NC(=O)c1cnc(N[C@@H]2CCCC[C@@H]2N)nc1Nc1cccc(-n2nccn2)c1
Procedure, shortened: as §1

[3] = compound: NC1(c2ccc(-c3nc4ccn5c(=O)[nH]nc5c4cc3-c3ccccc3)cc2)CCC1
Procedure, shortened: as §1

[4] = compound: NCC(=O)Nc1ccc(-n2nc(C(F)(F)F)cc2-c2ccc3c(ccc4ccccc43)c2)cc1
Procedure, shortened: as §1

entinostat = compound: Nc1ccccc1NC(=O)c1ccc(CNC(=O)OCc2cccnc2)cc1 [entinostat]
Procedure, shortened: as §1

vorinostat = compound: O=C(CCCCCCC(=O)Nc1ccccc1)NO [vorinostat]
Procedure, shortened: as §1

citarinostat = compound: O=C(CCCCCCNC(=O)c1cnc(N(c2ccccc2)c2ccccc2Cl)nc1)NO [citarinostat]
Procedure, shortened: as §1

silmitasertib = compound: O=C(O)c1ccc2c(c1)nc(Nc1cccc(Cl)c1)c1ccncc12 [silmitasertib]
Procedure, shortened: as §1

[5] = compound: O=C1NC(=O)C(c2cnc3ccccn23)=C1c1cn2c3c(cc(F)cc13)CN(C(=O)N1CCCCC1)CC2
Procedure, shortened: as §1

[6] = compound: c1cc(OCCN2CCCCC2)cc(-c2n[nH]c3ccc(-c4nnc[nH]4)cc23)c1
Procedure, shortened: as §1

entospletinib = compound: c1cn2cc(-c3ccc4cn[nH]c4c3)nc(Nc3ccc(N4CCOCC4)cc3)c2n1 [entospletinib]
Procedure, shortened: as §1

Measured: log2 fold change

BICD1 (UniProt Q96G01)
inactive: [1] 0.003 | [2] -0.064 | [3] -0.039 | [4] -0.01 | entinostat 0.003 | vorinostat 0.015 | citarinostat 0.045 | silmitasertib 0.152 | [5] 0.036 | [6] -0.081 | entospletinib -0.018

BRAT1 (UniProt Q6PJG6)
inactive: [1] -0.017 | [2] 0.014 | [3] -0.065 | [4] -0.006 | entinostat 0.013 | vorinostat 0.062 | citarinostat 0.042 | silmitasertib 0.004 | [5] -0.05 | [6] -0.048 | entospletinib 0.034

BNIP3 (UniProt Q12983)
inactive: [1] -0.042 | [2] -0.112 | [3] -0.255 | [4] -0.023 | entinostat 0.061 | vorinostat 0.03 | citarinostat 0.052 | silmitasertib 0.171 | [5] -0.179 | [6] -0.087 | entospletinib -0.093

BCAT2 (UniProt O15382)
inactive: [1] 0 | [2] -0.052 | [3] -0.005 | [4] 0.009 | entinostat 0.004 | vorinostat -0.037 | citarinostat 0.045 | silmitasertib 0.016 | [5] -0.014 | [6] 0 | entospletinib 0.014

BCAS2 (UniProt O75934)
inactive: [1] 0 | [2] 0.14 | [3] 0.07 | [4] -0.023 | entinostat 0.059 | vorinostat -0.08 | citarinostat 0.033 | silmitasertib 0.014 | [5] 0.004 | [6] -0.098 | entospletinib 0.066

BCS1L (UniProt Q9Y276)
inactive: [1] -0.014 | [2] -0.022 | [3] -0.021 | [4] -0.029 | entinostat -0.024 | vorinostat -0.025 | citarinostat 0.028 | silmitasertib -0.023 | [5] -0.063 | [6] -0.003 | entospletinib -0.002

BAG6 isoform 3 (UniProt P46379)
inactive: [1] -0.002 | [2] -0.098 | [3] -0.128 | [4] -0.032 | entinostat 0.033 | vorinostat 0.04 | citarinostat 0.028 | silmitasertib 0.05 | [5] -0.009 | [6] -0.043 | entospletinib 0.01

B3GAT3 (UniProt O94766)
inactive: [1] -0.015 | [2] 0.039 | [3] -0.031 | [4] 0.191 | entinostat -0.089 | vorinostat 0.014 | citarinostat 0.123 | silmitasertib 0.002 | [5] 0.022 | [6] -0.129 | entospletinib -0.006

ATXN10 (UniProt Q9UBB4)
inactive: [1] -0.051 | [2] -0.023 | [3] -0.097 | [4] 0 | entinostat 0.002 | vorinostat 0.044 | citarinostat 0.048 | silmitasertib -0.035 | [5] -0.006 | [6] -0.042 | entospletinib -0.021

BAG1 (UniProt Q99933)
inactive: [1] 0.038 | [2] 0.007 | [3] 0.033 | [4] -0.04 | entinostat -0.003 | vorinostat 0.004 | citarinostat 0.014 | silmitasertib -0.023 | [5] 0.033 | [6] -0.025 | entospletinib -0.012

BCL2L13 (UniProt Q9BXK5)
inactive: [1] -0.016 | [2] -0.108 | [3] -0.098 | [4] -0.031 | entinostat 0.019 | vorinostat 0.042 | citarinostat 0.049 | silmitasertib 0.023 | [5] -0.048 | [6] -0.031 | entospletinib 0.02

BOLA3 (UniProt Q53S33)
inactive: [1] -0.034 | [2] -0.009 | [3] -0.031 | [4] 0 | entinostat -0.023 | vorinostat -0.024 | citarinostat 0.011 | silmitasertib -0.008 | [5] 0.012 | [6] 0.003 | entospletinib 0.047

BRD2 isoform 2 (UniProt P25440)
inactive: [1] -0.01 | [2] -0.209 | [4] -0.112 | entinostat -0.159 | vorinostat -0.214

BLOC1S6 (UniProt Q9UL45)
inactive: [1] 0.021 | [2] 0.003 | [3] 0.042 | [4] -0.065 | entinostat -0.009 | citarinostat 0.07 | silmitasertib 0.179 | [5] 0.007 | [6] -0.114 | entospletinib -0.016

BIRC5 (UniProt O15392)
inactive: [1] -0.003 | [2] 0.018 | [4] 0.145 | entinostat -0.032 | citarinostat 0.09 | [5] -0.148 | [6] 0.044 | entospletinib -0.094

BLZF1 (UniProt Q9H2G9)
inactive: [1] 0.088 | entinostat 0.091

B4GALT2 isoform 3 (UniProt O60909)
inactive: [1] -0.034 | entinostat 0.009

B3GNT8 (UniProt Q7Z7M8)
inactive: [1] 0.165 | entinostat -0.037

B3GNT5 (UniProt Q9BYG0)
inactive: [1] 0.01 | [3] 0.002 | [4] 0.118 | entinostat 0.006 | silmitasertib -0.115 | [5] -0.024

BCAR1 isoform 6 (UniProt P56945)
inactive: [1] -0.143 | [2] 0.203 | [4] -0.084 | entinostat 0.022 | vorinostat 0.092 | citarinostat 0.06 | [5] 0.071 | [6] -0.043 | entospletinib -0.05

BAIAP2 isoform 4 (UniProt Q9UQB8)
inactive: [1] 0.019 | entinostat -0.095

ATXN2 (UniProt F8W0B5)
inactive: [1] 0.03 | [2] 0.018 | [3] 0.069 | entinostat -0.054 | vorinostat -0.154 | citarinostat -0.031 | silmitasertib 0.069 | [6] -0.094 | entospletinib 0.134

BCL7C isoform 2 (UniProt Q8WUZ0)
inactive: [1] 0.043 | [3] -0.066 | entinostat -0.12 | silmitasertib 0.022 | [5] 0.128

BCL7A isoform 2 (UniProt Q4VC05)
inactive: [1] 0.035 | [2] -0.003 | entinostat -0.067 | citarinostat 0.134 | [5] 0.107 | [6] -0.114 | entospletinib 0.143

BRIP1 (UniProt Q9BX63)
inactive: [1] 0.139 | [2] -0.139 | [4] -0.099 | entinostat 0.001 | vorinostat -0.025 | citarinostat 0.054 | [5] -0.07 | [6] 0.077

BCOR (UniProt Q6W2J9)
inactive: [1] -0.399 | [4] -0.271 | entinostat -0.215 | [5] -0.223

Random excerpt: two records from the list.
ATXN2 (UniProt F8W0B5)
inactive: [1] 0.03 | [2] 0.018 | [3] 0.069 | entinostat -0.054 | vorinostat -0.154 | citarinostat -0.031 | silmitasertib 0.069 | [6] -0.094 | entospletinib 0.134

BCOR (UniProt Q6W2J9)
inactive: [1] -0.399 | [4] -0.271 | entinostat -0.215 | [5] -0.223

(continued)

BAZ1B (UniProt Q9UIG0)
inactive: [1] 0.048 | [3] 0.016 | [4] -0.034 | entinostat -0.117 | vorinostat 0.281 | citarinostat 0.254 | silmitasertib 0.002 | [6] -0.028 | entospletinib -0.049

B3GALNT2 (UniProt Q8NCR0)
inactive: [1] -0.022 | [3] -0.018 | [4] -0.258 | entinostat 0.071 | vorinostat -0.163 | citarinostat -0.025 | silmitasertib 0.135 | [5] 0.007 | [6] -0.356 | entospletinib -0.307

B3GNTL1 (UniProt Q67FW5)
inactive: [1] -0.071 | [2] 0 | [3] -0.017 | [4] -0.12 | entinostat -0.013 | vorinostat 0.022 | silmitasertib 0.023 | [5] 0.237

BHMT (UniProt Q93088)
inactive: [1] -0.035 | entinostat 0.249

BEX4 (UniProt Q9NWD9)
inactive: [1] -0.074 | [3] -0.147 | entinostat 0.263 | citarinostat 0.115 | silmitasertib 0.213 | [6] -0.301 | entospletinib -0.055

BRAF (UniProt P15056)
inactive: [1] -0.102 | [2] -0.079 | [4] -0.046 | entinostat 0.009 | vorinostat 0.012 | citarinostat -0.002 | silmitasertib 0.024 | [5] -0.007 | [6] -0.067

BLM (UniProt P54132)
inactive: [1] 0.039 | [2] -0.007 | [3] -0.093 | [4] -0.06 | entinostat 0.037 | citarinostat 0.009 | silmitasertib -0.091 | [6] -0.023 | entospletinib 0.085

BRD8 isoform 2 (UniProt Q9H0E9)
inactive: [1] -0.016 | [2] -0.205 | [4] -0.13 | entinostat 0.039 | vorinostat -0.092 | citarinostat -0.019 | [5] 0.102 | [6] -0.09

BRI3BP (UniProt Q8WY22)
inactive: [1] 0.009 | [2] -0.01 | [3] -0.014 | [4] -0.16 | entinostat 0.028 | citarinostat 0.015 | silmitasertib 0.069 | [5] -0.045 | [6] -0.151 | entospletinib -0.046

AZI2 (UniProt Q9H6S1)
inactive: [1] -0.094 | [4] -0.152 | entinostat 0.041 | citarinostat -0.014 | [6] -0.028
